In doi:10.1101/2020.06.12.149062:
These are yes or no findings as the source states them, for the method shown. In cells and extracts the contact can be indirect. Some entries that bind do so weakly or less than the wild type. Values belong to the substance of their own block, whether it stands above or below them.

By UniProt entry, the sequences of proteins in these tests, tags left out. Residues count along the entry.
UniProt P01132, residues 29-1217: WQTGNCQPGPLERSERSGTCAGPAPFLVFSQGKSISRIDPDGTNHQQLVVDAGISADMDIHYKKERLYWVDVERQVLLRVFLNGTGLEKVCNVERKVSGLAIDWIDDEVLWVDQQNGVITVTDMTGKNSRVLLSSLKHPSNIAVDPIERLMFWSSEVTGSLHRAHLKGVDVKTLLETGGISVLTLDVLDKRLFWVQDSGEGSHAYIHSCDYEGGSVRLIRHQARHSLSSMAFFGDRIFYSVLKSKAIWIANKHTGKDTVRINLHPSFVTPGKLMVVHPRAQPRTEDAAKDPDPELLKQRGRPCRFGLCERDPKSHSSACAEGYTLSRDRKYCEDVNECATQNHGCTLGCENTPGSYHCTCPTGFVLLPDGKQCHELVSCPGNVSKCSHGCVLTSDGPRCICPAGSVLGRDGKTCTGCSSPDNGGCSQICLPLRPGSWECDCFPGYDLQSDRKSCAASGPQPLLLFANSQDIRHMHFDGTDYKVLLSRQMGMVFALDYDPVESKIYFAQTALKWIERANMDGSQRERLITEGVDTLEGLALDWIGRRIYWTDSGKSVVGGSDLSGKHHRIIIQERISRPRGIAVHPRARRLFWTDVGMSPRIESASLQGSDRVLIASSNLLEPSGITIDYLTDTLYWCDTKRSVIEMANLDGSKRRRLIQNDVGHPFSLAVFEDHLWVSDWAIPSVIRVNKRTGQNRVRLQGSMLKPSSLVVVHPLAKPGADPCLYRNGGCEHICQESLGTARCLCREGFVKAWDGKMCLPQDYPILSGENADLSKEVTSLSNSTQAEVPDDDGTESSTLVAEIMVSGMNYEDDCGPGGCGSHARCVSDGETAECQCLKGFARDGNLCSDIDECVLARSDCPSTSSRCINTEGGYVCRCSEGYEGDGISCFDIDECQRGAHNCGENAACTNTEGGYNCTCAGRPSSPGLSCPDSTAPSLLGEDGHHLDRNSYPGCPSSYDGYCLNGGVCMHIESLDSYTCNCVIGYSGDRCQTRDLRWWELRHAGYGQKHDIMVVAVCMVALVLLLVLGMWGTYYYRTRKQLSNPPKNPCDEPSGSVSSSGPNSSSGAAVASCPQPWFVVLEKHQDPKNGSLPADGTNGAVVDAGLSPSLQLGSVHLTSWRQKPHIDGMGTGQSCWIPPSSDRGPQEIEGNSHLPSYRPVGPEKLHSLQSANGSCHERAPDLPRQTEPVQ
UniProt P12023, residues 18-770: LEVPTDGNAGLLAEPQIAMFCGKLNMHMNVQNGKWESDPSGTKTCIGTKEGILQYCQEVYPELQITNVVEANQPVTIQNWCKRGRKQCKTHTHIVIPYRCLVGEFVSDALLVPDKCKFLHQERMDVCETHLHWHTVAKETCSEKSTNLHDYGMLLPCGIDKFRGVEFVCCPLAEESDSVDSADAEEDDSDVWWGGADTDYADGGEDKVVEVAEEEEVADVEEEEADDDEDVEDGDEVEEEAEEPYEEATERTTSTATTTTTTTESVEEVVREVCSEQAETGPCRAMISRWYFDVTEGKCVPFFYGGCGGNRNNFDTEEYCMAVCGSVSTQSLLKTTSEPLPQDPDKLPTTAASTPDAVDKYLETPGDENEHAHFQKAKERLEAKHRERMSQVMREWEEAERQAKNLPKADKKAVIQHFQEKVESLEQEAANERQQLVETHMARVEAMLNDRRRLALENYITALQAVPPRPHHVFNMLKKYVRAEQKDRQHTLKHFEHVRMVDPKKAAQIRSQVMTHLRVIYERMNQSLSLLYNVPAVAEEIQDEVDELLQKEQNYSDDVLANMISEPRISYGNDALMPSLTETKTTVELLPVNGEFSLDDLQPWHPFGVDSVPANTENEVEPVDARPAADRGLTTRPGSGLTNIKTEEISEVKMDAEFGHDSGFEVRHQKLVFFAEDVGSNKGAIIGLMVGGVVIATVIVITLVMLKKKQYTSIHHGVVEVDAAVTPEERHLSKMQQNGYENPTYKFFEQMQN
UniProt P08592, residues 18-770: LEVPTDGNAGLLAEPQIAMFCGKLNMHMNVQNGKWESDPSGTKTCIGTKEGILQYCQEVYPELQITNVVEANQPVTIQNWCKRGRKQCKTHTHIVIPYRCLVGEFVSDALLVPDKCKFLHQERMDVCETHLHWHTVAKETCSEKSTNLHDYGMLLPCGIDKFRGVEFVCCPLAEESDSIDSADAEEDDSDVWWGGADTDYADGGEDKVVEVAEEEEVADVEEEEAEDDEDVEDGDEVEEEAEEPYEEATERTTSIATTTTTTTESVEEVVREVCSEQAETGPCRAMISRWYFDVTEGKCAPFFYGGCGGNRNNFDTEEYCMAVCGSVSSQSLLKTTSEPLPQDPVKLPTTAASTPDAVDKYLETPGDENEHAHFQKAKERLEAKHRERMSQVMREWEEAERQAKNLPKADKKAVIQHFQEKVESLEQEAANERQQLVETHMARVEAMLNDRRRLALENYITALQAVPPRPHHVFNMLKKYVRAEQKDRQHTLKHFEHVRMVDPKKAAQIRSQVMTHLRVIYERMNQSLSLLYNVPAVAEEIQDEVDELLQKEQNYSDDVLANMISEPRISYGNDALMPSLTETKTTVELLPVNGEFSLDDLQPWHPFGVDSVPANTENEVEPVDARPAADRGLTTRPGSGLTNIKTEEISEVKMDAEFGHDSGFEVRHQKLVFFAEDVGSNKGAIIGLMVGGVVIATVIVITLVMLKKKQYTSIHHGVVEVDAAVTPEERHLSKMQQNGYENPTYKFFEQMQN
UniProt P01133, residues 23-1207: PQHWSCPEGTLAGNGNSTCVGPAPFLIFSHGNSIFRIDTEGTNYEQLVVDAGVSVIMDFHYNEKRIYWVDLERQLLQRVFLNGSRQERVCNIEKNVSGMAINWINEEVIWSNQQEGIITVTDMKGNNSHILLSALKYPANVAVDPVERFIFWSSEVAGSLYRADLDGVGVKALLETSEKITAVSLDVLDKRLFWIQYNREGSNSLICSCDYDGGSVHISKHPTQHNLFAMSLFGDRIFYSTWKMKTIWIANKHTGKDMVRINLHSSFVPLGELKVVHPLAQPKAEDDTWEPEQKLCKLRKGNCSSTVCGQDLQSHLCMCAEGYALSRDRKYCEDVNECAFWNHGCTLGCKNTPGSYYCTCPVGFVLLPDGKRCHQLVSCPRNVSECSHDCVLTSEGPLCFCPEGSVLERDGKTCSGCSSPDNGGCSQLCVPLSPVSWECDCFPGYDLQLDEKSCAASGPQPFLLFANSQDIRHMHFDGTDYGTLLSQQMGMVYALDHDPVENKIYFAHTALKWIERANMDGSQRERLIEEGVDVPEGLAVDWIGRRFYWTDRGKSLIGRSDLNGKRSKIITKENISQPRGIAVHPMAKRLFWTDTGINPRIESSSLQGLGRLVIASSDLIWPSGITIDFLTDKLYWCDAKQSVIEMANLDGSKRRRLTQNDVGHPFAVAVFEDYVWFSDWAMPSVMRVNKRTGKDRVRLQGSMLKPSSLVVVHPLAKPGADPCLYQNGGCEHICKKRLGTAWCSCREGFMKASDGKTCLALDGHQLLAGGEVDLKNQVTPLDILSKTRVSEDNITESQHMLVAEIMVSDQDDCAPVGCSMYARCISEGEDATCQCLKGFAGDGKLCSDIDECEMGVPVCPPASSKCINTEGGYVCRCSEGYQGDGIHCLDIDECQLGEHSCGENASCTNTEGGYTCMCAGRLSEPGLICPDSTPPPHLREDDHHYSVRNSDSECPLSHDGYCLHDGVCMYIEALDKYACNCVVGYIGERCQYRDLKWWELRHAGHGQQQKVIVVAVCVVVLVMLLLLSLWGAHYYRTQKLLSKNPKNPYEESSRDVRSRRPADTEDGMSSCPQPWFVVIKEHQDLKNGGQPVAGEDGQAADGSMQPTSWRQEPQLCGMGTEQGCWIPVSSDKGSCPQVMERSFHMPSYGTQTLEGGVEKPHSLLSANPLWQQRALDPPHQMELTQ
UniProt P07522, residues 22-1133: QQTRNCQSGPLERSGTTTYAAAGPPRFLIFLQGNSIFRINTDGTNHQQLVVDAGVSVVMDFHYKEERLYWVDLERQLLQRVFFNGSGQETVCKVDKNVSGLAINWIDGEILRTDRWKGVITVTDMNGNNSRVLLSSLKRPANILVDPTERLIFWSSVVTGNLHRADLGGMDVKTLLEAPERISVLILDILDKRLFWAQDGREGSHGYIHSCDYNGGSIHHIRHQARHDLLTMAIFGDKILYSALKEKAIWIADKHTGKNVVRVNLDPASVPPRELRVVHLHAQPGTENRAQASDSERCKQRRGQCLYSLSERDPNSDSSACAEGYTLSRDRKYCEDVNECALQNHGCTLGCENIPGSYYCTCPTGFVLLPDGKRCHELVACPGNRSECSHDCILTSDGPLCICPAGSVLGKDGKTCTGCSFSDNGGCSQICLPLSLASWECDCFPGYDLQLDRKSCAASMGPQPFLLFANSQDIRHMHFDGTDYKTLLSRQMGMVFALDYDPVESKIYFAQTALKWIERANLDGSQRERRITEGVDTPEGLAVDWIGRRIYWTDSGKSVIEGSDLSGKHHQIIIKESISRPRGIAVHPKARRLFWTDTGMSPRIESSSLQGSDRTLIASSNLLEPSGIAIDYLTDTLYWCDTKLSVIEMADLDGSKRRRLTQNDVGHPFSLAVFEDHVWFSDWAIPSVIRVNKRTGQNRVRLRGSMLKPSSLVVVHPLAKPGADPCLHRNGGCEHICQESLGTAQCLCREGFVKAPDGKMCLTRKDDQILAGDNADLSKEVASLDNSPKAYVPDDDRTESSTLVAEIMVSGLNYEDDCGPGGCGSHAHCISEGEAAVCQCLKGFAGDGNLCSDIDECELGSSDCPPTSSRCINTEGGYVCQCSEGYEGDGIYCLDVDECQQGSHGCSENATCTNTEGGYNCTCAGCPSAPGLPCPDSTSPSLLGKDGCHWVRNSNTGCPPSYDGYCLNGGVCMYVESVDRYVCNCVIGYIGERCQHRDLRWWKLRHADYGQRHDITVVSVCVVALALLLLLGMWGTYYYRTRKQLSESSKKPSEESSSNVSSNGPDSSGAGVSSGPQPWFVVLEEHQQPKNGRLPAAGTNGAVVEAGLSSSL
UniProt Q99075, residues 20-208: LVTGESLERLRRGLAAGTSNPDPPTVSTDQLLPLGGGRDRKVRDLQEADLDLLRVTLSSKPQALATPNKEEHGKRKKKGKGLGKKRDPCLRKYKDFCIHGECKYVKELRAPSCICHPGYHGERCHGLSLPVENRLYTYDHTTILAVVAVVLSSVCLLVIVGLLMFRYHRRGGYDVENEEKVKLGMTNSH

Legend:
Assay in all cases: co-IP
[1] = target: endogenous pro-EGF (mouse cortex) (mouse (endogenous in cortex)) (UniProt P01132)
[2] = target: human APP isoform 695 fused to GFP (APP695-GFP) (human) (UniProt P05067)
[3] = target: endogenous APP (mouse cortex) (mouse (endogenous in cortex)) (UniProt P12023)
[4] = target: endogenous APP (rat cortex) (rat (endogenous in cortex)) (UniProt P08592)

binding [2]: binds
Substance: endogenous pro-EGF (HeLa cells) (from UniProt P01133 23-1207)

binding [3]: binds
Substance: endogenous pro-EGF (mouse cortex) (from UniProt P01132 29-1217)

Further lines, the substance ahead of its results:

Substance: endogenous APP (mouse cortex) (from UniProt P12023 18-770)
binding [1]: binds

Substance: endogenous pro-EGF (rat cortex) (from UniProt P07522 22-1133)
binding [4]: binds

Substance: endogenous pro-HB-EGF (HeLa cells) (from UniProt Q99075 20-208)
binding [2]: binds weakly
